In the supplement of paper PMC12823440, “Inhibitors supercharge kinase turnover through native proteolytic circuits” (Nature, 2025):
Where a name gives a salt, the structure may show the parent alone. This is one part of the list. Hit calls seldom repeat between salt and free forms of one compound.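 Kinases, fused to nanoluciferase, were expressed in K562 cells; luminescence was measured every 4 h from 2 to 18 h as percent of control (DMSO = 100%, positive control = 0%). A time point is decreased if signal falls significantly (2 sigma). Hits were called by the authors by a rule that is not shown; the count of time points alone does not decide it.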

Protein sequences, listed by entry. Tags and fused reporters are not part of them. Lines headed by an entry give the natural chain unless they say otherwise; changes in a name come on top.
UniProt Q9Y616: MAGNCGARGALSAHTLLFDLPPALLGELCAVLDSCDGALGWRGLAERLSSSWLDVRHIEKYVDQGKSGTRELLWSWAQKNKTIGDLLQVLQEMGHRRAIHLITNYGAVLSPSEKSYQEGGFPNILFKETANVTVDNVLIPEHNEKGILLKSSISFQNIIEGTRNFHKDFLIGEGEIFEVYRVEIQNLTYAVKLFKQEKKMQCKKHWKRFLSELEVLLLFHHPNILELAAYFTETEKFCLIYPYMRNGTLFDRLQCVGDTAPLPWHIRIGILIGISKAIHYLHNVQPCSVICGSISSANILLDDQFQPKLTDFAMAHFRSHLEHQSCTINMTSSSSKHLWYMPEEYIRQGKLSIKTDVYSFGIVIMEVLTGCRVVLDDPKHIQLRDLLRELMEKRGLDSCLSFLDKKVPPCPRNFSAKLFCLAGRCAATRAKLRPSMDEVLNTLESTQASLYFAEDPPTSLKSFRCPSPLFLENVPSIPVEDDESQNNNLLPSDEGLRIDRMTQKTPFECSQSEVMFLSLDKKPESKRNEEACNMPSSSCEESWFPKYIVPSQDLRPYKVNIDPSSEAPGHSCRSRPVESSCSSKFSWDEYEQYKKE

Molecular target: IRAK3 (UniProt Q9Y616)
Experiment: number of time points (of 5) at which kinase-Nluc abundance scored as decreased, DMSO-normalised (count); higher = more persistent destabilization
Details: K562; 2-18 h

Question: How did the “number of time points” value turn out when `CCS(=O)(=O)c1ccc(Oc2cc(O[C@@H](C)CO)cc(C(=O)Nc3ccn(C)n3)c2)cn1` (10 µM) was run?
Answer: 0

Question: For `O=C1C(=Cc2ccc(O)c(O)c2)Oc2ccccc21` (2.5 µM), which “number of time points” value is on record?
Answer: 0

Question: Which “number of time points” value does the source give for `CN(C)CCCNc1ccn2ncc(-c3ccc4c(c3)OCO4)c2n1` (10 µM) here?
Answer: 0

Question: Which “number of time points” value does the source give for `COc1ccc(C(=O)c2cn(C(C)C)c3ncnc(N)c23)cc1NC(=O)Nc1ccc(Cl)cc1Cl` (10 µM) here?
Answer: 0

Question: How did the “number of time points” value turn out when `C[C@@H]1CN(Cc2cn[nH]c2-c2ccc(C#N)cc2)CCN1c1ccc(C(F)(F)F)cn1` (2.5 µM) was run?
Answer: 0

Question: `O=C1c2c(O)cc(O)cc2O[C@H](c2cc(O)c(O)c(O)c2)[C@H]1O` [Dihydromyricetin] (10 µM) was tested. Which “number of time points” value did it give?
Answer: 0

Question: `C=CC(=O)N[C@H]1CCOC[C@H]1Nc1ncc2cc(-c3c(Cl)c(OC)cc(OC)c3Cl)ccc2n1` [Fisogatinib] (10 µM) was tested. Which “number of time points” value did it give?
Answer: 0

Question: With `CC(C)(O)c1cc(Nc2cc(Oc3cn(C4CC4)nc3C3CCOCC3)ccn2)ccn1` (10 µM) as the molecule, how does the “number of time points” value read?
Answer: 0

Question: For `CC[C@H](C)[C@@H]1NC(=O)[C@@H]2CCCN2C(=O)[C@@H]2CCCN2C(=O)[C@@H]2CCCN2C(=O)[C@H](CC(C)C)NC(=O)CNC(=O)CNC(=O)[C@H](Cc2ccccc2)NC1=O` [Heterophyllin B] (10 µM), which “number of time points” value is on record?
Answer: 0

Question: For `COc1cc(-c2cnc(N)c(-c3ccc(NC(=O)c4cn(CC5CCOCC5)cc(-c5ccc(C)cn5)c4=O)cc3F)c2)ccc1OC[C@H]1COCCO1` [DS-1205b (free base)] (10 µM), which “number of time points” value is on record?
Answer: 0

Question: `C=CC(=O)Nc1cccc(Nc2nc(Nc3ccc(Oc4ccnc(C(=O)NC)c4)cc3)ncc2F)c1` (2.5 µM) was tested. Which “number of time points” value did it give?
Answer: 0

Question: Which “number of time points” value does the source give for `COc1ccc(-c2cnc3c(-c4cccc5ncccc45)cnn3c2)cc1` (10 µM) here?
Answer: 0

Question: `Cc1c(Br)c(Br)c2c3c1nc(N1CCNCC1)n3CCC2` [SEL120-34A (monohydrochloride)] (2.5 µM) was tested. Which “number of time points” value did it give?
Answer: 0

Question: `Cc1nc(Nc2ncc(C(=O)Nc3c(C)cccc3Cl)s2)cc(N2CCN(C(=O)CCCCCCC(=O)N[C@H](C(=O)N3C[C@H](O)C[C@H]3C(=O)NCc3ccc(-c4scnc4C)cc3)C(C)(C)C)CC2)n1` (2.5 µM) was tested. Which “number of time points” value did it give?
Answer: 3

Question: Which “number of time points” value does the source give for `CC(=O)Nc1nc(C)c(-c2ccc(Cl)c(S(=O)(=O)NCCO)c2)s1` (10 µM) here?
Answer: 0

Question: For `CC(C)n1nc(C#Cc2ccccc2)c2c(N)ncnc21` (10 µM), which “number of time points” value is on record?
Answer: 0

Question: `COc1cc(OC)c(/C=C/S(=O)(=O)Cc2ccc(OC)c(NCC(=O)O)c2)c(OC)c1` [Rigosertib (sodium)] (10 µM) was tested. Which “number of time points” value did it give?
Answer: 0

Question: How did the “number of time points” value turn out when `CNC[C@@H](NC(=O)c1ccc(-c2nc([C@H]3CC[C@H](O)[C@@H](F)C3)cnc2N)cc1F)c1cc(F)cc(Br)c1` [Rineterkib] (10 µM) was run?
Answer: 0

Question: Which “number of time points” value does the source give for `CCCC[C@H](CO)Nc1nc(NC)ncc1OC` [Interferon receptor inducer-1] (10 µM) here?
Answer: 0

Question: How did the “number of time points” value turn out when `CC(C)=C/C=C1\O[C@@H]2CC(C)=CC(=O)[C@@H]2[C@]1(C)O` [Bisabolangelone] (10 µM) was run?
Answer: 0

Question: `CCCCCC1CC1CC1CC1CCCCCCCC(=O)O` (stereo not drawn) (10 µM) was tested. Which “number of time points” value did it give?
Answer: 0

Question: Which “number of time points” value does the source give for `CNC(=O)c1c(C)oc2cc(Oc3ncnc4cc(OC)c(OC)cc34)ccc12` [Fruquintinib] (10 µM) here?
Answer: 0

Question: For `CC(C)(C)S(=O)(=O)c1cc2c(Nc3ccc4scnc4c3)ccnc2cc1OCCOCCOCCOCCOCC(=O)Nc1cccc2c1CN(C1CCC(=O)NC1=O)C2=O` (stereo not drawn) [PROTAC RIPK degrader-6] (10 µM), which “number of time points” value is on record?
Answer: 0

Question: For `C[C@]1(O)C[C@@](N)(c2ccc(-c3nc4n(c3-c3ccccc3)COc3ccncc3-4)cc2)C1` [TAS-117 (hydrochloride)] (10 µM), which “number of time points” value is on record?
Answer: 0

Question: With `CNC(=O)c1nnc(NC(=O)C2CC2)cc1Nc1cccc(-c2ncn(C)n2)c1OC` [Deucravacitinib] (10 µM) as the molecule, how does the “number of time points” value read?
Answer: 0

Question: With `O=c1sn(-c2cccc3ccccc23)c(=O)n1Cc1ccccc1` [Tideglusib] (10 µM) as the molecule, how does the “number of time points” value read?
Answer: 0

Question: How did the “number of time points” value turn out when `C=CC(=O)Nc1cccc(Oc2nc(Nc3ccc(N4CCN(C)CC4)cc3)ncc2Cl)c1` (2.5 µM) was run?
Answer: 0

Question: For `CNC(=O)c1ccc(-c2cnc3ncc(Cc4ccc5ncccc5c4)n3n2)cc1F` [Capmatinib] (10 µM), which “number of time points” value is on record?
Answer: 0

Question: Which “number of time points” value does the source give for `CN(C)C(=O)c1cc2cnc(Nc3ccc(NC(=O)C4(C(=O)Nc5ccc(F)cc5)CC4)cc3)nc2n1C1CCCC1` (2 µM) here?
Answer: 0

Question: For `Cn1cc(C2=C(c3c4n(c5ccccc35)CCC(CN)C4)C(=O)NC2=O)c2ccccc21` (stereo not drawn) [Bisindolylmaleimide X (hydrochloride)] (2.5 µM), which “number of time points” value is on record?
Answer: 0

Question: For `COc1cc(/C=C/c2ccc(NC(=O)/C=C/c3cc(OC)c(OC)c(OC)c3)cc2)cc(OC)c1` (2.5 µM), which “number of time points” value is on record?
Answer: 0

Question: For `O=C(N=c1sccn1Cc1ccccc1)c1c[nH]c2ncccc12` (10 µM), which “number of time points” value is on record?
Answer: 0

Question: How did the “number of time points” value turn out when `C=CCN(/C=C1/C(=O)O[C@H](COC)[C@@]2(C)C1=C(O)C(=O)C1=C2[C@H](OC(C)=O)C[C@]2(C)C(=O)CC[C@@H]12)CC=C` [Sonolisib] (2.5 µM) was run?
Answer: 0

Question: How did the “number of time points” value turn out when `CC(C)(C)c1ccc(C(=O)Nc2cn3cc(-n4ccnc4)ccc3n2)cc1` (10 µM) was run?
Answer: 0

Question: How did the “number of time points” value turn out when `C[C@@]12CCc3occc3[C@H]1CC[C@@]13C[C@@H](CC[C@H]12)[C@@](O)(CO)C3` [Cafestol] (10 µM) was run?
Answer: 0

Question: Which “number of time points” value does the source give for `O=S(=O)(c1cccc2c(Cl)cccc12)N1CCCNCC1` (10 µM) here?
Answer: 0

Question: Which “number of time points” value does the source give for `Oc1ccc2ccccc2c1SSc1c(O)ccc2ccccc12` (10 µM) here?
Answer: 0

Question: Which “number of time points” value does the source give for `COc1cc(Nc2nc3ccccc3nc2NS(=O)(=O)c2ccc(NC(=O)c3ccc(C)c(OC)c3)cc2)cc(OC)c1` (10 µM) here?
Answer: 0
